These are yes or no findings as the source states them, for the method shown. Some results given as binding are weak or reduced against the parent protein; the word gives no strength.
Key:
[1] = target: LILRB1-D1D2 Fc fusion protein (human) (UniProt Q8NHL6); experiment: ELISA on LILRB1-D1D2 Fc fusion proteins
M35 (human) = M35 (human) (UniProt Q8NHL6); experiment: ELISA on LILRB1-D1D2 Fc fusion proteins
[2] = target: LILRB1 expressed on cell surface (human) (UniProt Q8NHL6); experiment: flow cytometry on LILR reporter cells, 0.5 µg/mL rabbit B1-176, anti-Rabbit-IgG PE
LILRB2 (human) [3] = target: LILRB2 (human) (UniProt Q8N423); experiment: ELISA
LILRA6 (human) [4] = target: LILRA6 (human) (UniProt Q6PI73); experiment: ELISA
LILRA5 (human) [5] = target: LILRA5 (human) (UniProt A6NI73); experiment: ELISA
LILRB3 [6] = experiment: ELISA
LILRA3 on reporter cells [7] = target: LILRA3 on reporter cells (UniProt Q8N6C8); experiment: flow cytometry on LILR reporter cells, anti-rabbit IgG PE
LILRB3 on reporter cells [8] = target: LILRB3 on reporter cells (UniProt O75022); experiment: as above
LILRB4 on reporter cells [9] = target: LILRB4 on reporter cells (UniProt Q8NHJ6); experiment: as above
LILRB5 on reporter cells [10] = target: LILRB5 on reporter cells (UniProt O75023); experiment: as above
LILRA6 on reporter cells [11] = target: LILRA6 on reporter cells (UniProt Q6PI73); experiment: as above
LILRB2 on reporter cells [12] = target: LILRB2 on reporter cells (UniProt Q8N423); experiment: as above
LILRA5 on reporter cells [13] = target: LILRA5 on reporter cells (UniProt A6NI73); experiment: as above
LILRA4 on reporter cells [14] = target: LILRA4 on reporter cells (UniProt P59901); experiment: as above
LILRA3 on reporter cells [15] = target: LILRA3 on reporter cells (UniProt Q8N6C8); experiment: flow cytometry on 2B4 cells expressing the LILR, PE
LILRB3 on reporter cells [16] = target: LILRB3 on reporter cells (UniProt O75022); experiment: as above
LILRB4 on reporter cells [17] = target: LILRB4 on reporter cells (UniProt Q8NHJ6); experiment: as above
LILRB5 on reporter cells [18] = target: LILRB5 on reporter cells (UniProt O75023); experiment: as above
LILRA6 on reporter cells [19] = target: LILRA6 on reporter cells (UniProt Q6PI73); experiment: as above
LILRB2 on reporter cells [20] = target: LILRB2 on reporter cells (UniProt Q8N423); experiment: as above
LILRA5 on reporter cells [21] = target: LILRA5 on reporter cells (UniProt A6NI73); experiment: as above
LILRA4 on reporter cells [22] = target: LILRA4 on reporter cells (UniProt P59901); experiment: as above
[23] = target: LILRB1 expressed on cell surface (human) (UniProt Q8NHL6); experiment: flow cytometry on 2B4 cells expressing the LILR, PE; antibody concentration not given
[24] = target: LILRB1-D1D2 Fc fusion protein (human) (UniProt Q8NHL6); experiment: ELISA on LILRB1-Fc fusion proteins with different domain deletion
[25] = target: LILRB1 expressed on cell surface (human) (UniProt Q8NHL6); experiment: flow cytometry on LILR reporter cells
LILRA3 on reporter cells [26] = target: LILRA3 on reporter cells (UniProt Q8N6C8); experiment: flow cytometry on LILR reporter cells, anti-Rabbit-IgG PE
LILRB3 on reporter cells [27] = target: LILRB3 on reporter cells (UniProt O75022); experiment: as above
LILRB4 on reporter cells [28] = target: LILRB4 on reporter cells (UniProt Q8NHJ6); experiment: as above
LILRB5 on reporter cells [29] = target: LILRB5 on reporter cells (UniProt O75023); experiment: as above
LILRA6 on reporter cells [30] = target: LILRA6 on reporter cells (UniProt Q6PI73); experiment: as above
LILRB2 on reporter cells [31] = target: LILRB2 on reporter cells (UniProt Q8N423); experiment: as above
LILRA5 on reporter cells [32] = target: LILRA5 on reporter cells (UniProt A6NI73); experiment: as above
LILRA4 on reporter cells [33] = target: LILRA4 on reporter cells (UniProt P59901); experiment: as above
[34] = target: LILRB1 expressed on cell surface (human) (UniProt Q8NHL6); experiment: flow cytometry on LILR reporter cells, 0.5 µg/mL rabbit B1-176, anti-rabbit IgG PE
[35] = target: LILRB1-D1D2 Fc fusion protein (human) (UniProt Q8NHL6); experiment: ELISA on LILRB1 domain-Fc fusion proteins, one condition, concentration not given
LILRB2 (human) [36] = target: LILRB2 (human) (UniProt Q8N423); experiment: Octet RED96, cross-reactivity table
LILRA6 (human) [37] = target: LILRA6 (human) (UniProt Q6PI73); experiment: Octet RED96, cross-reactivity table
LILRA5 (human) [38] = target: LILRA5 (human) (UniProt A6NI73); experiment: Octet RED96, cross-reactivity table
LILRB3 [39] = experiment: Octet RED96, cross-reactivity table

By UniProt entry, the sequences of proteins in these tests, tags left out. Where a name states a change or a piece, a line headed by the entry shows the natural chain unless it says otherwise. Chains listed by the source or under a name are the forms on record and can include a tag or linker. Residues count along the entry.
M35 (Q8NHL6, form named): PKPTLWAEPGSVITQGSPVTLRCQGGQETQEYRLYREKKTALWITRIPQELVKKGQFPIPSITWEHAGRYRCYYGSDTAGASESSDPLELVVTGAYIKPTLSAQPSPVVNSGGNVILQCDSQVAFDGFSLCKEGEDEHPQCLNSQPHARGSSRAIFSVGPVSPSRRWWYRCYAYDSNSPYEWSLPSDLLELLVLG
UniProt Q8N423: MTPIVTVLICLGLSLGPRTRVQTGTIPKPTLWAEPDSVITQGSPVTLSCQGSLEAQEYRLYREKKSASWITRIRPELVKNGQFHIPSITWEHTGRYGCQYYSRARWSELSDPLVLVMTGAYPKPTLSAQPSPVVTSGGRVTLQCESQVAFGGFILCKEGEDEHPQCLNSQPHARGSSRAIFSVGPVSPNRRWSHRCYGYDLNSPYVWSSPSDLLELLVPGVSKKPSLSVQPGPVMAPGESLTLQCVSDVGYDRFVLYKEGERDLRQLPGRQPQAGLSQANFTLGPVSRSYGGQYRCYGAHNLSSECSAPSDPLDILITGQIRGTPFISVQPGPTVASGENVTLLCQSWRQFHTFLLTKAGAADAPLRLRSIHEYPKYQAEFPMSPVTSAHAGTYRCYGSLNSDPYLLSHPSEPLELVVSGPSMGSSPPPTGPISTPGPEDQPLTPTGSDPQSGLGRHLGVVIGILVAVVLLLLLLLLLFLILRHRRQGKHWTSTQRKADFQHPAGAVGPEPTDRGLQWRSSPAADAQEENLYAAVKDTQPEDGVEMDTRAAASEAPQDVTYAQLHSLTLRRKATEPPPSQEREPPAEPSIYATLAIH
LILRB2 on reporter cells: residues 22-597 of Q8N423
LILRB2: residues 22-460 of Q8N423
UniProt Q6PI73: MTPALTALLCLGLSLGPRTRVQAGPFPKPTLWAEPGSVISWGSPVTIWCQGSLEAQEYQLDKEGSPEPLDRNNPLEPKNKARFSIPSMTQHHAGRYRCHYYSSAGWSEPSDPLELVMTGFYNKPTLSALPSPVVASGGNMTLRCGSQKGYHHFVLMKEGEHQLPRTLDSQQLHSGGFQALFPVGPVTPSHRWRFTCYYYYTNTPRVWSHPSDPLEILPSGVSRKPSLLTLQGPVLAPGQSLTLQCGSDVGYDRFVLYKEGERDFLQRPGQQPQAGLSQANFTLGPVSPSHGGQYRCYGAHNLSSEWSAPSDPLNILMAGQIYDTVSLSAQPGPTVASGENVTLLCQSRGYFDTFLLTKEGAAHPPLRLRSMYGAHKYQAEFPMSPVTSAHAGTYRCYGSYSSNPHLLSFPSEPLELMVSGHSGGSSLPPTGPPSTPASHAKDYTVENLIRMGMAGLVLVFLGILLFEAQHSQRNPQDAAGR
LILRA6 on reporter cells: residues 24-481 of Q6PI73
LILRA6: residues 24-447 of Q6PI73
UniProt A6NI73: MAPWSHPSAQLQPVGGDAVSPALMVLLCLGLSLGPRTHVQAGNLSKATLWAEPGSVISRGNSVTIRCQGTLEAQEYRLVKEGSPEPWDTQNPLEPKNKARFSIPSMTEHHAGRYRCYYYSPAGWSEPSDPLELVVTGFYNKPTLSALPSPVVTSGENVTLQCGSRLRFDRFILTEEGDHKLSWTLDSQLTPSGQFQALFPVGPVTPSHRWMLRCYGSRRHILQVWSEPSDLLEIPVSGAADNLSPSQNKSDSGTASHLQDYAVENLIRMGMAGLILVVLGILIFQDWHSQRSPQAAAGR
LILRA5 on reporter cells: residues 42-299 of A6NI73
LILRA5: residues 42-268 of A6NI73
UniProt Q8N6C8, residues 24-439: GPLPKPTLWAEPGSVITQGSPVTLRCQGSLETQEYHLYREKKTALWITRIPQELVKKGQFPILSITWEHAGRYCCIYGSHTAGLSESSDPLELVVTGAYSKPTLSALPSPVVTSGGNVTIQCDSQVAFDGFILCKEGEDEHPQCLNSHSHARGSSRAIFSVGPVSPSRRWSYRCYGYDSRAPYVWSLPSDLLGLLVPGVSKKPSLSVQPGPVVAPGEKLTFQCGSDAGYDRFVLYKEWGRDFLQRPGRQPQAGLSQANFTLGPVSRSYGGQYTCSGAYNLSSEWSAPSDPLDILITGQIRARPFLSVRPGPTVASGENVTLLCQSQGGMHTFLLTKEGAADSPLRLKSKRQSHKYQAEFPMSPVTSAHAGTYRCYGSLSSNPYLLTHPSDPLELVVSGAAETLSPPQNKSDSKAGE
UniProt O75022, residues 24-631: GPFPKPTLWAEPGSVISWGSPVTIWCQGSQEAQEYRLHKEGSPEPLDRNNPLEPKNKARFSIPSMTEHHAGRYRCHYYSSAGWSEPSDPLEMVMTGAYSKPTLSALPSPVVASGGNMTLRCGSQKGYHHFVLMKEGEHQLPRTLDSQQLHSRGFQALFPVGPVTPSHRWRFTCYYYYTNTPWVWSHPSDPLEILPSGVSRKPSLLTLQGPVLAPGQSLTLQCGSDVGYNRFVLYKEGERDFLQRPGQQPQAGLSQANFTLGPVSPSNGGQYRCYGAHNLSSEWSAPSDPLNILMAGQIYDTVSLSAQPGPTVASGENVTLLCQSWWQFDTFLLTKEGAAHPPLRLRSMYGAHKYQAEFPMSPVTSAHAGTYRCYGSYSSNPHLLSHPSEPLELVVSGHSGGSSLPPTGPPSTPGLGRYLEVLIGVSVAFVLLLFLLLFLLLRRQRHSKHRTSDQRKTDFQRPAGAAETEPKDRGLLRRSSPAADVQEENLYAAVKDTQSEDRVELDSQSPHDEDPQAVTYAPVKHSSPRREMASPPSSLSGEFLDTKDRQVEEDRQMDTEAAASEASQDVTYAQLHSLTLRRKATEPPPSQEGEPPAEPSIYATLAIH
UniProt Q8NHJ6, residues 22-448: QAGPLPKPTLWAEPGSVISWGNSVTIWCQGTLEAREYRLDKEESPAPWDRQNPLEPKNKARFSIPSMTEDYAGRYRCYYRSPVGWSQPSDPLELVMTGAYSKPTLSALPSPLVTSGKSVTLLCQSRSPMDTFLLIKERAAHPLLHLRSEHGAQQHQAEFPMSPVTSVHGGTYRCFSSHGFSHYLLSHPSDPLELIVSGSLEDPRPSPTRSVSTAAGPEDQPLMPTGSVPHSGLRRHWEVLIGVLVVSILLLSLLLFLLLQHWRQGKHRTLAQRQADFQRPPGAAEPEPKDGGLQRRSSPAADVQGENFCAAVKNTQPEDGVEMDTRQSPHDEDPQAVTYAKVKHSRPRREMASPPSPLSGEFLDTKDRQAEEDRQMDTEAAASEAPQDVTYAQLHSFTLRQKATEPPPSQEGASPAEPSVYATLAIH
UniProt O75023, residues 24-590: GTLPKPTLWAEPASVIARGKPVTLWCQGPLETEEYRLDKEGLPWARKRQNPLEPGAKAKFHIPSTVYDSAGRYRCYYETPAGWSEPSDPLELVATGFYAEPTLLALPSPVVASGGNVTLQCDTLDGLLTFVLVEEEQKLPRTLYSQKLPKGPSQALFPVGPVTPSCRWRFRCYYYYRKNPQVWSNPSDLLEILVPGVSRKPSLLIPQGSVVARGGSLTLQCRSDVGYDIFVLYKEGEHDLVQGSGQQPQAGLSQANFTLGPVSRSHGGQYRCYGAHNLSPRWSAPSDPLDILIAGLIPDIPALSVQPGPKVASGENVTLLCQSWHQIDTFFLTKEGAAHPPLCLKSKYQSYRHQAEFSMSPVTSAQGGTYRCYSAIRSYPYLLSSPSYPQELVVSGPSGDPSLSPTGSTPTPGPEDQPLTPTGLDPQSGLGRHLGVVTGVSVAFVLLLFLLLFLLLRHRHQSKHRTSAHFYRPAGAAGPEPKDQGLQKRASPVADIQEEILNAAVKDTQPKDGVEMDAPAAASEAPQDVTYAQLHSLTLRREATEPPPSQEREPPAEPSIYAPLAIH
UniProt P59901, residues 24-499: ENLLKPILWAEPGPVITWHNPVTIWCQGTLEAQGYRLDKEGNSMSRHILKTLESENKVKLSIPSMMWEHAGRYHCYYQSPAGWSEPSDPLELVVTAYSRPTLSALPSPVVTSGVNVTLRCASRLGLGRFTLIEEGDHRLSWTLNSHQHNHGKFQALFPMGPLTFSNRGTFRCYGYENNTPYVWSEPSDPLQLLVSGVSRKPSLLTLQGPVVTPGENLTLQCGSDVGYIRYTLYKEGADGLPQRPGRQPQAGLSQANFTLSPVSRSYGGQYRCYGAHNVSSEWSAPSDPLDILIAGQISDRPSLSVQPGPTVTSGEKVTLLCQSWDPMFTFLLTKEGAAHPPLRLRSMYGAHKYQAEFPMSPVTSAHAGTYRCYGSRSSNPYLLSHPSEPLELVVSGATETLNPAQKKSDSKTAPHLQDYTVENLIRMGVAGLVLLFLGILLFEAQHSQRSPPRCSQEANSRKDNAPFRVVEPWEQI

B1: B1-176 rabbit antibody (antibody, V domains shown)
VH: QSLEESEGGLVKPGGTLTLTCTASGFSFSSSYCMCWVRQAPGKGLELIACIYTDSSGATYYASWAKGRFTISKSSSTTITLQMTSLTAADTATYFCARGWDYEDPGYTDTTYFSLWGPGTLVTVSS
VL: ELDLTQTPSSVEAAVGGTVTIKCQASQTIYTNLAWYQQKPGQPPNLLIYAASTLASGVSSRFKGSGSGTEFTLTISDLECADAATYYCQSYYGSSTTGNGFGGGTEVEIK
In the case of B1, the binding [1] is reported as “binds”, the binding (M35 (human)) is reported as “no binding (tested: 10^3.5 ng/mL (about 3000 ng/mL))” and the binding [2] is reported as “binds”. For the same binder, the binding (LILRB2 (human) [3]) was “no binding (tested: 10^3.0 ng/mL (1000 ng/mL))”, the binding (LILRA6 (human) [4]) was “no binding (tested: 10^3.0 ng/mL (1000 ng/mL))” and the binding (LILRA5 (human) [5]) was “no binding (tested: 10^3.0 ng/mL (1000 ng/mL))”. For the same binder, the binding (LILRB3 [6]) was “no binding (tested: 10^3.0 ng/mL (1000 ng/mL))”, the binding (LILRA3 on reporter cells [7]) was “no binding (tested: 0.5 µg/mL)” and the binding (LILRB3 on reporter cells [8]) was “no binding (tested: 0.5 µg/mL)”. The binding (LILRB4 on reporter cells [9]) was “no binding (tested: 0.5 µg/mL)”, the binding (LILRB5 on reporter cells [10]) was “no binding (tested: 0.5 µg/mL)” and the binding (LILRA6 on reporter cells [11]) was “no binding (tested: 0.5 µg/mL)”. For the same binder, the binding (LILRB2 on reporter cells [12]) was “no binding (tested: 0.5 µg/mL)”, the binding (LILRA5 on reporter cells [13]) was “no binding (tested: 0.5 µg/mL)” and the binding (LILRA4 on reporter cells [14]) was “no binding (tested: 0.5 µg/mL)”. The binding (LILRA3 on reporter cells [15]) was “no binding (tested: not given)”, the binding (LILRB3 on reporter cells [16]) was “no binding (tested: not given)” and the binding (LILRB4 on reporter cells [17]) was “no binding (tested: not given)”. The binding (LILRB5 on reporter cells [18]) was “no binding (tested: not given)”, the binding (LILRA6 on reporter cells [19]) was “no binding (tested: not given)” and the binding (LILRB2 on reporter cells [20]) was “no binding (tested: not given)”. The binding (LILRA5 on reporter cells [21]) was “no binding (tested: not given)”, the binding (LILRA4 on reporter cells [22]) was “no binding (tested: not given)” and the binding [23] was “binds”. The binding [24] was “binds”, the binding [25] was “binds” and the binding (LILRA3 on reporter cells [26]) was “no binding (tested: 0.5 µg/mL)”. For the same binder, the binding (LILRB3 on reporter cells [27]) was “no binding (tested: 0.5 µg/mL)”, the binding (LILRB4 on reporter cells [28]) was “no binding (tested: 0.5 µg/mL)” and the binding (LILRB5 on reporter cells [29]) was “no binding (tested: 0.5 µg/mL)”. For the same binder, the binding (LILRA6 on reporter cells [30]) was “no binding (tested: 0.5 µg/mL)”, the binding (LILRB2 on reporter cells [31]) was “no binding (tested: 0.5 µg/mL)” and the binding (LILRA5 on reporter cells [32]) was “no binding (tested: 0.5 µg/mL)”. For the same binder, the binding (LILRA4 on reporter cells [33]) was “no binding (tested: 0.5 µg/mL)”, the binding [34] was “binds” and the binding [35] was “binds”. For the same binder, the binding (LILRB2 (human) [36]) was “no binding (tested: not given)”, the binding (LILRA6 (human) [37]) was “no binding (tested: not given)” and the binding (LILRA5 (human) [38]) was “no binding (tested: not given)”. For the same binder, the binding (LILRB3 [39]) was “no binding (tested: not given)”.
